Experimental findings from paper PMC11482726 are described below.

These are yes or no findings as the source states them, for the method shown. In cells and extracts the contact can be indirect. Some binding calls cover weakened binding; strength is not graded here. Sequences can lack the tags named with a protein.

In this experiment the target is T1, human IRF3, MYC-tagged, from pXJ41-hIRF3 (human) (UniProt Q14653).
T1 sequence: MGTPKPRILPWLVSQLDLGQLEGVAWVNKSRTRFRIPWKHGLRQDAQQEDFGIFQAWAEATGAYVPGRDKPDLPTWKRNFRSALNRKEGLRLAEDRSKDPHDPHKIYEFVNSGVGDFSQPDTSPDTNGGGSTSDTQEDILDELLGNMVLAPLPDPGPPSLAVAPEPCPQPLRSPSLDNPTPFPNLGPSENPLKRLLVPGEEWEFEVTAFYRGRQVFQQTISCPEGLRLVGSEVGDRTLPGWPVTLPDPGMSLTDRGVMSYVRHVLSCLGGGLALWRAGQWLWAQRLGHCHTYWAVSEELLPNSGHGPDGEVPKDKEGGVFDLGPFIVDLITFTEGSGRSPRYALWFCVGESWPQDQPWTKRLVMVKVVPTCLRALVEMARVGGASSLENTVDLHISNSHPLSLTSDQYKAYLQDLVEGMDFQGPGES
The experiment can be described thus: co-IP; HEK-293T cells transfected with pXJ41-hIRF3 or pXJ41 for 24 h; IP with anti-MYC antibody, blot with anti-NONO antibody (endogenous NONO).

B1: NONO, endogenous in HEK-293T cells (protein, UniProt Q15233 1-471)
chain: MQSNKTFNLEKQNHTPRKHHQHHHQQQHHQQQQQQPPPPPIPANGQQASSQNEGLTIDLKNFRKPGEKTFTQRSRLFVGNLPPDITEEEMRKLFEKYGKAGEVFIHKDKGFGFIRLETRTLAEIAKVELDNMPLRGKQLRVRFACHSASLTVRNLPQYVSNELLEEAFSVFGQVERAVVIVDDRGRPSGKGIVEFSGKPAARKALDRCSEGSFLLTTFPRPVTVEPMDQLDDEEGLPEKLVIKNQQFHKEREQPPRFAQPGSFEYEYAMRWKALIEMEKQQQDQVDRNIKEAREKLEMEMEAARHEHQVMLMRQDLMRRQEELRRMEELHNQEVQKRKQLELRQEEERRRREEEMRRQQEEMMRRQQEGFKGTFPDAREQEIRMGQMAMGGAMGINNRGAMPPAPVPAGTPAPPGPATMMPDGTLGLTPPTTERFGQAATMEGIGAIGGTPPAFNRAAPGAEFAPNKRRRY
For the molecule B1, the binding entry is “binds”.
